Experimental data taken from article PMC12827997.
These are yes or no findings as the source states them, for the method shown. In cells and extracts the contact can be indirect. A yes stands for co-enrichment or nearness to the bait. Other partners may have been found.

Amino acid sequences for entries named in this document (tags omitted). Residues count along the entry.
UniProt P06733: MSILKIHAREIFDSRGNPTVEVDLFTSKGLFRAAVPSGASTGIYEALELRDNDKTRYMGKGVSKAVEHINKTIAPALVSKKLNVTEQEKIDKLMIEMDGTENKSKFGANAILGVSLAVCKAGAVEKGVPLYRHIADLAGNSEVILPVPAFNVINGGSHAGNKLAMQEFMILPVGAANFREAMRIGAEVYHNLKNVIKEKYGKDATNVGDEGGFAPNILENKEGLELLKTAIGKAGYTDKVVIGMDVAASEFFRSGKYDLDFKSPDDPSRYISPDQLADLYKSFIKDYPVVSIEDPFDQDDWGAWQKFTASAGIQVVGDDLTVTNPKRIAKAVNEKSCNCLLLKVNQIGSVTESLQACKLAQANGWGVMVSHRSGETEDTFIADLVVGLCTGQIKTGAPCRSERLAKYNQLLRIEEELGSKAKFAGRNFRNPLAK
UniProt P30530, residues 26-894: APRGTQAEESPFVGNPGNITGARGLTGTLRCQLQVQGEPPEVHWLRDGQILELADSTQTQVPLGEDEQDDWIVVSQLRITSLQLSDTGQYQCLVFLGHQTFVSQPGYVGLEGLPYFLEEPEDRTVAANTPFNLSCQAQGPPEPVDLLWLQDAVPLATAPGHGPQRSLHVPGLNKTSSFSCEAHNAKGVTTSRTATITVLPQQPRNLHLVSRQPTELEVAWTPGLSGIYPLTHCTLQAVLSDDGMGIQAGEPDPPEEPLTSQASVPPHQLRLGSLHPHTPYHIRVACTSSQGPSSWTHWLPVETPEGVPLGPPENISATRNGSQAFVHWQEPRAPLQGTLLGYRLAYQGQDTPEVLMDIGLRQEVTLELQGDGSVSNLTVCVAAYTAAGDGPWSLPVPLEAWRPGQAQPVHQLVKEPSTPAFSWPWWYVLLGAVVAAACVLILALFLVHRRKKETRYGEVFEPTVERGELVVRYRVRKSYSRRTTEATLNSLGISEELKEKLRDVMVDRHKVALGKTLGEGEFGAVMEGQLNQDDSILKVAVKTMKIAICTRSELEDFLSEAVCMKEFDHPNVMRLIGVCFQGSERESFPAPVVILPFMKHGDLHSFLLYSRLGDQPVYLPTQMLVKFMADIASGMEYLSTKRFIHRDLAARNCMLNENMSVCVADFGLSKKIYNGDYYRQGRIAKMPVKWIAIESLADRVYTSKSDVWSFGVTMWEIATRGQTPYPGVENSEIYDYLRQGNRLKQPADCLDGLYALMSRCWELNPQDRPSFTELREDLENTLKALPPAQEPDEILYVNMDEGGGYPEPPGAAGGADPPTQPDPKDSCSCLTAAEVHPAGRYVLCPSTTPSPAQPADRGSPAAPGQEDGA
UniProt O00206, residues 24-839: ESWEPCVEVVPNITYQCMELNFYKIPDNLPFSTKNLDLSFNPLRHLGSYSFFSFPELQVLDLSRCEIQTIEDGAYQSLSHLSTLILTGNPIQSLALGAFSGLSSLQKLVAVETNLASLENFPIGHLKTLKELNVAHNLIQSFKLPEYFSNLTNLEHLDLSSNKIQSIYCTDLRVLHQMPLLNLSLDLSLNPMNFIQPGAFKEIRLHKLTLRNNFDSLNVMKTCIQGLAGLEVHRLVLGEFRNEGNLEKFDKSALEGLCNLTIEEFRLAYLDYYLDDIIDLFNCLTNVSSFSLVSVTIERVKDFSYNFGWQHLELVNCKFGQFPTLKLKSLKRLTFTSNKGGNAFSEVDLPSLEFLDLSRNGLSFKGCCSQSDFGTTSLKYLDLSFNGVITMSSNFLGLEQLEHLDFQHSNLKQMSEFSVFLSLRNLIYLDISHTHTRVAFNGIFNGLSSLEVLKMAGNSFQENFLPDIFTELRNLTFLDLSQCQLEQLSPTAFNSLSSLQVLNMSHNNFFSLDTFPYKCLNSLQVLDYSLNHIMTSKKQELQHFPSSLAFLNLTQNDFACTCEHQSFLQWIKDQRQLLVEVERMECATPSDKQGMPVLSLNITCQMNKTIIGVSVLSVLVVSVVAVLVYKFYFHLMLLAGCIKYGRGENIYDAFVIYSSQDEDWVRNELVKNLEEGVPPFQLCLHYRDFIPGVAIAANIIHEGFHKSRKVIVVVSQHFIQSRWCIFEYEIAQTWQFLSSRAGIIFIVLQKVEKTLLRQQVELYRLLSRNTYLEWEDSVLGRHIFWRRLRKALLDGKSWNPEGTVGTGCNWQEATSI

Biological target: Alpha-enolase (ENO1) (human (endogenous in GBM cell lines)) (UniProt P06733)
Assay: affinity purification with mass spectrometry; U87MG cells treated with rhENO1 (1 μg/mL) for 0-12 h; IP of whole-cell lysates with ENO1-specific antibody-conjugated beads, silver staining, differential 70-130 kDa bands excised for MS; hits cross-referenced with the Membranome database

Substance | binding
AXL (from UniProt P30530 26-894) (receptor) | binds
Toll-like receptor 4 (TLR4) (from UniProt O00206 24-839) | binds
